No constants are given. Whether binding was seen depends on the method and setting. In cells and extracts the contact can be indirect. Some binding calls cover weakened binding; strength is not graded here.
Target: T1, SLC40A1, also known as Ferroportin (FPN) (human (endogenous in U87R and GSCm01R)) (UniProt Q9NP59)
T1 sequence: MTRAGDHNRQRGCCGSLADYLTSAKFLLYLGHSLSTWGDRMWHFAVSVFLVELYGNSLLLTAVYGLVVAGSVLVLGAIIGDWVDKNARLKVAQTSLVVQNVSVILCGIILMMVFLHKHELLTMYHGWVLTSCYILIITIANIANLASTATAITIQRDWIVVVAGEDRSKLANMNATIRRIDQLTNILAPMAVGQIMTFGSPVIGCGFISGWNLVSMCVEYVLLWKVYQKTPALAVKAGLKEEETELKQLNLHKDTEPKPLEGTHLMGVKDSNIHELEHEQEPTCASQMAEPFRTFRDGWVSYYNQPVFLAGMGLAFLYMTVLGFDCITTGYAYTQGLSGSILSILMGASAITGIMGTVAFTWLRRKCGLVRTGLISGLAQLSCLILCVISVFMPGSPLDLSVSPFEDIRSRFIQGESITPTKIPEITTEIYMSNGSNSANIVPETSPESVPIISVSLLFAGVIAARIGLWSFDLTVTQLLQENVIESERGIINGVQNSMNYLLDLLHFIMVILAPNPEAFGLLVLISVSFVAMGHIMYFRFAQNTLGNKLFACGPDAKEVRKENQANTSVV
Test: co-IP; U87R and GSCm01R cells lysed in IP lysis buffer with protease and phosphatase inhibitors; lysates incubated with antibody-coupled magnetic beads overnight at 4 °C (Pierce Classic Magnetic IP/Co-IP Kit); western blotting

B1: E3 ubiquitin ligase LRSAM1 (Leucine-rich repeat and sterile alpha motif-containing 1) (enzyme, UniProt Q6UWE0 1-723)
chain: MPLFFRKRKPSEEARKRLEYQMCLAKEAGADDILDISKCELSEIPFGAFATCKVLQKKVLIVHTNHLTSLLPKSCSLLSLATIKVLDLHDNQLTALPDDLGQLTALQVLNVERNQLMQLPRSIGNLTQLQTLNVKDNKLKELPDTVGELRSLRTLNISGNEIQRLPQMLAHVRTLEMLSLDASAMVYPPREVCGAGTAAILQFLCKESGLEYYPPSQYLLPILEQDGIENSRDSPDGPTDRFSREELEWQNRFSDYEKRKEQKMLEKLEFERRLELGQREHTQLLQQSSSQKDEILQTVKEEQSRLEQGLSEHQRHLNAERQRLQEQLKQTEQNISSRIQKLLQDNQRQKKSSEILKSLENERIRMEQLMSITQEETESLRRRDVASAMQQMLTESCKNRLIQMAYESQRQNLVQQACSSMAEMDERFQQILSWQQMDQNKAISQILQESAMQKAAFEALQVKKDLMHRQIRSQIKLIETELLQLTQLELKRKSLDTESLQEMISEQRWALSSLLQQLLKEKQQREEELREILTELEAKSETRQENYWLIQYQRLLNQKPLSLKLQEEGMERQLVALLEELSAEHYLPIFAHHRLSLDLLSQMSPGDLAKVGVSEAGLQHEILRRVQELLDAARIQPELKPPMGEVVTPTAPQEPPESVRPSAPPAELEVQASECVVCLEREAQMIFLNCGHVCCCQQCCQPLRTCPLCRQDIAQRLRIYHSS
In the case of B1, the binding is reported as “binds”.

Reference: PMC11263394
